Measurements from PMC5894228.
Results are given in words; binding and its absence hold for the method and conditions named. In cells and extracts the contact can be indirect. Some binding calls cover weakened binding; strength is not graded here.

The chains behind the UniProt entries cited, without tags or fusion partners. Residues count along the entry.
UniProt P19838, residues 1-433: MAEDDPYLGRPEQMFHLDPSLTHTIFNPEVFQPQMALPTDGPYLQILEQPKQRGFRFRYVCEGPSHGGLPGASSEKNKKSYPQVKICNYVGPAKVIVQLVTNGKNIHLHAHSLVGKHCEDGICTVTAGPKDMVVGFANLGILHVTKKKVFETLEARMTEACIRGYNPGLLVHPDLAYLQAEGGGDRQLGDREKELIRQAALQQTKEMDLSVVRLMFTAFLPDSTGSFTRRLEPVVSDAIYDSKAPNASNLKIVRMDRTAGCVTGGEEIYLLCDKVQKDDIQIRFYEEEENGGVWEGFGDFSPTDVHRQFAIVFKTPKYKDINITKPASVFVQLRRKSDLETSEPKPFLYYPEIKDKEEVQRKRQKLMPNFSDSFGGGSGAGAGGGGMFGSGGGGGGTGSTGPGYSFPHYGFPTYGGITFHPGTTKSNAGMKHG

Experiments:
[1] = target: T1, N-terminal fragment (amino acids 1–276) of SP110 (human) (UniProt Q9HB58); assay: co-IP; HEK293T co-transfected, 2 days; whole-cell lysates (RIPA buffer) incubated with anti-FLAG M2 magnetic beads overnight at 4 °C, washed with PBS, Western blot; control IgG in Fig. 6e
T1 sequence: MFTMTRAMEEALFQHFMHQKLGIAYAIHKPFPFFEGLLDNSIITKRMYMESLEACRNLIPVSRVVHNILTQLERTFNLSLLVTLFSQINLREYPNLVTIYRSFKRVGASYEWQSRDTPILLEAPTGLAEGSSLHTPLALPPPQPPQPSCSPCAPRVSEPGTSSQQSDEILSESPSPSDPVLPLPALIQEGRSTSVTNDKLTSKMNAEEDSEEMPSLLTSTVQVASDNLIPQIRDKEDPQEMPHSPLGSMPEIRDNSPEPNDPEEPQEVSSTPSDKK

[2] = target: p50, a subunit of NF-κB (human) (UniProt P19838); assay: as above

**Q.** Which binding [1] does the source give for “p50, a subunit of NF-κB (from UniProt P19838 1-433)” here?
**A.** binds

B1: N-terminal fragment (amino acids 1–276) of SP110 (domain or fragment, UniProt Q9HB58 1-276)
chain: MFTMTRAMEEALFQHFMHQKLGIAYAIHKPFPFFEGLLDNSIITKRMYMESLEACRNLIPVSRVVHNILTQLERTFNLSLLVTLFSQINLREYPNLVTIYRSFKRVGASYEWQSRDTPILLEAPTGLAEGSSLHTPLALPPPQPPQPSCSPCAPRVSEPGTSSQQSDEILSESPSPSDPVLPLPALIQEGRSTSVTNDKLTSKMNAEEDSEEMPSLLTSTVQVASDNLIPQIRDKEDPQEMPHSPLGSMPEIRDNSPEPNDPEEPQEVSSTPSDKK
**Q.** How did the binding [2] turn out when B1 was run?
**A.** binds
